In publication PMC4366279 (PLoS ONE, 2015):
No constants are given. Whether binding was seen depends on the method and setting. Binding seen in cells or lysates may run through a third protein. Some entries that bind do so weakly or less than the wild type.

How the values were obtained:
Assay in all cases: pull-down; His6-TbREL1 TNT mixture mixed with an equal volume of untagged KREPA2 TNT mixture, captured on magnetic His-tag isolation beads (Dynabeads); binding buffer 50 mM NaPO4 pH 8.0, 300 mM NaCl, 0.01% Tween 20; 20-30 min at 4°C; three washes; [35S]-methionine-labelled proteins on 10% SDS-PAGE, PhosphorImager; KREPA2-only control for background
[1] = target: T1, T. brucei RNA Editing Ligase 1 (TbREL1), full length wild type (Trypanosoma brucei) (UniProt P86926)
T1 sequence (chain, [35S]-methionine labelled): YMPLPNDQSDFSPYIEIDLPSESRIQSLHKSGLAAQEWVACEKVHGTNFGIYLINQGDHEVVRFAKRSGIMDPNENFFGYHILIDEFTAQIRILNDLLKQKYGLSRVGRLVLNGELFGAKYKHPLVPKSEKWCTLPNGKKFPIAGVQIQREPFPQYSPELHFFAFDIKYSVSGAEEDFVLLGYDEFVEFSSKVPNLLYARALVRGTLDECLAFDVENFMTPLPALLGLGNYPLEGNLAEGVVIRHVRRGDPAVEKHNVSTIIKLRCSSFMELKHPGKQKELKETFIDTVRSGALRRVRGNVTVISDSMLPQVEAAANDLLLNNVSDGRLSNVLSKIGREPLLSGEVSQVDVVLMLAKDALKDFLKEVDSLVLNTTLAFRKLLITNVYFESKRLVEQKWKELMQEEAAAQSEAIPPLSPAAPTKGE

[2] = target: T2, TbREL1 H205A (Trypanosoma brucei) (UniProt P86926)
T2 sequence (chain, [35S]-methionine labelled): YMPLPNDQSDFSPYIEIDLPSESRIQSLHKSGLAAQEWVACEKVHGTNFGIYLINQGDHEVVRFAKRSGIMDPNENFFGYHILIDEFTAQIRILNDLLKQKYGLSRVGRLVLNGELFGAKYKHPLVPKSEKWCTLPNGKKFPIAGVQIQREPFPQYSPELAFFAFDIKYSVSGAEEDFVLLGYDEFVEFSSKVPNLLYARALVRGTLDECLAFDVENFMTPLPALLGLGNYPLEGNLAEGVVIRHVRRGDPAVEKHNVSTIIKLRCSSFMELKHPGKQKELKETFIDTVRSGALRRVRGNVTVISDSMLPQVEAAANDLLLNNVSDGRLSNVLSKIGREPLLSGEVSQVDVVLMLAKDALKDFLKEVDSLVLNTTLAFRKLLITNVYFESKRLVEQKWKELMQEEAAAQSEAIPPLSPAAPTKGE

[3] = target: T3, TbREL1 K424A (Trypanosoma brucei) (UniProt P86926)
T3 sequence (chain, [35S]-methionine labelled): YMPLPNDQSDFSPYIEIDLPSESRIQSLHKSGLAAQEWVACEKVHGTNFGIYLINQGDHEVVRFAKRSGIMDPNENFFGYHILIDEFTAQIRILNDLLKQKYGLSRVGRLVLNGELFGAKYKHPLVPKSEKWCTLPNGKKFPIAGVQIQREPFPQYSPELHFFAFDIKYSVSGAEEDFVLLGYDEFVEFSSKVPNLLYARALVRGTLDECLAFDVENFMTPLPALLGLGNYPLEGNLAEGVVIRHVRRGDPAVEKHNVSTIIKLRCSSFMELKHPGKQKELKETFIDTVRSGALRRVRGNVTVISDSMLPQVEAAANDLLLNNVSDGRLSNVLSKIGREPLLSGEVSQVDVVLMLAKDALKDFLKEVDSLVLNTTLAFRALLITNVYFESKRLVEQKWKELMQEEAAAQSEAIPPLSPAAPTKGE

[4] = target: T4, TbREL1 Q100A (Trypanosoma brucei) (UniProt P86926)
T4 sequence (chain, [35S]-methionine labelled): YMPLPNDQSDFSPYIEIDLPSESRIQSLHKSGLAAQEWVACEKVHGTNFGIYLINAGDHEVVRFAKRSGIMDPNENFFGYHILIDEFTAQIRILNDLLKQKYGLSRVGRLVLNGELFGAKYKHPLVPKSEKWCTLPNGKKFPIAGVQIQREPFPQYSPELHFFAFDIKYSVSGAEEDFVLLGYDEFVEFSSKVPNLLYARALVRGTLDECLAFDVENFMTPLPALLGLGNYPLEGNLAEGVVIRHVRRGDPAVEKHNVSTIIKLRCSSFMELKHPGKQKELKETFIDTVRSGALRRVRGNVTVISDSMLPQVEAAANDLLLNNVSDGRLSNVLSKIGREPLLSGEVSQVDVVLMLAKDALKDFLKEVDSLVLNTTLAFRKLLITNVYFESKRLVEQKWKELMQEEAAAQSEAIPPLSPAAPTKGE

Measured: binding

B1: KREPA2 (natural protein)
chain: MYRRFFRSAAVKHLGTTSAQCLMRATKYPCGAMCRNASSCHPQTLGYQQRFQSTTDKKFHCSVCKKPFRLEMAAKLHLQQAHGGDGSVEAGPGPGVEASSVNVVSTPVPSPISPVERTFVDEEERRPRRMRPTPKPLHQPDRDIPAAAMEEMLGVWDKIGLNRLEGNFVHSTMVMKVFAAPPDVSEIPLYEHVAPEGENPFDSLDHMTTGTVDATYVGHDAFAEVDLVDPFVAAPDQTLNPFRAGKVRNPFTRISPTQREVVKPLQPPQPKEEPLKAPVTPFGQLPMFGQTREPSASFAAAAVSVQAAANPNEVSSPFAAAVSSSPFVGQVASPFAPAQDVAGSPFEASPCAASSPFVTAGGQETSPFAAPSTPASFGQGSLFPPMGTGAPGFTAITETEQRQQELEHGCPTCGKKFSTFEGAAMHSKSKHGIVLESKKVKDRLNRKGVPDLPAYVPSPVDLSSTSPFGTRSAIGASWAETELIPHAQCVSNITIVGRVLDVSQASENVSHVTVFVEGERSGEEETLTLCCFGEVSQKIRGTLKRNATIFASGTLRLHPVYEASNNKYYVSPVVHVSMPTGTLAVIT
modifications: [35S]-methionine labelled
notes: KREPA2 of T. brucei, the KREPA2 open reading frame, expressed untagged (63 kDa); source: in vitro translated (TNT reticulocyte lysate coupled transcription and translation system, Promega)
binds: all assays above
